Laboratory results published in patent US20180111993A1.
These are yes or no findings as the source states them, for the method shown. Some entries that bind do so weakly or less than the wild type.

Tests used:
[1] = biological target: chimeric soluble CD33-Mouse Fc (mouse); assay: flow cytometry of transfected 293T cells stained with soluble CD33 fused with mouse Fc chain, then anti-mouse Fc-APC
[2] = biological target: chimeric soluble CD33-Mouse Fc (mouse); assay: flow cytometry of transfected 293T cells stained with soluble CD33-mouse Fc
[3] = biological target: chimeric soluble CD33-Mouse Fc (mouse); assay: flow cytometry of transduced PBMCs stained with recombinant CD33-Fc

Measured: binding

B1: anti-CD33 CAR of the CD19:CD33 CAR construct (flow cytometry staining experiments) (protein, not shown: large carriers)
chain: RCDIQMTQSPSSLSASVGDRVTITCRASEDIYFNLVWYQQKPGKAPKLLIYDTNRLADGVPSRFSGSGSGTQYTLTISSLQPEDFATYYCQHYKNYPLTFGQGTKLEIKRSGGGGSGGGGSGGGGSGGGGSRSEVQLVESGGGLVQPGGSLRLSCAASGFTLSNYGMHWIRQAPGKGLEWVSSISLNGGSTYYRDSVKGRFTISRDNAKSTLYLQMNSLRAEDTAVYYCAAQDAYTGGYFDYWGQGTLVTVSSM
binds: all assays above
